# Results as given in the supplement of paper PMC3334620.
# In all, about 33,000 sequences were measured (“E-score (-0.5 to 0.5)”: median about -0.0059, highest 2% from about 0.26 on). The list shows a part of the results.
# Molecular target: T1, Cin5 (UniProt P40917)
# T1 sequence: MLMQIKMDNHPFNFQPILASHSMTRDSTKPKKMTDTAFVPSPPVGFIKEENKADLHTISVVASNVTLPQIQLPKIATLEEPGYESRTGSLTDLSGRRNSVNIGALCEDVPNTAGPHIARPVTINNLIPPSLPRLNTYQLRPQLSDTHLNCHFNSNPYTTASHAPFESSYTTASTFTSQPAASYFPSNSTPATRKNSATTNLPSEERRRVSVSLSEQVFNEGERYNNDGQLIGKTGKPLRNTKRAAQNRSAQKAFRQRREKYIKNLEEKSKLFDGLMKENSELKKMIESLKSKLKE
# Test: PBM E-score (8-mer binding enrichment) (E-score (-0.5 to 0.5)); higher = stronger / more preferred TF binding
# Conditions: protein concentration: 100 nM; construct: GST-full length
# Outline: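 Bound GST-tagged yeast transcription factors, applied at about 100-200 nM to double-stranded universal all-10-mer Agilent arrays, were detected with fluorescent anti-GST. Scans were normalised with masliner. A modified Wilcoxon-Mann-Whitney statistic, the E-score, was assigned to each ungapped eight-base word pooled with its reverse complement by the Universal PBM Analysis Suite.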
row,Sequence,PBM E-score
1,GAACCCCA,0.178
2,CGACTAAC,0.0331
3,ATACAACC,0.0923
4,ACCGATGA,-0.138
5,ACTTGAAA,0.0376
6,CCCATTCA,0.214
7,CACGTAGA,0.0501
8,AGGTTGTG,-0.126
9,ATGGCCGC,-0.158
10,CGTTTGGC,-0.136
11,CAGAAAGA,0.0132
12,CACATTTA,0.039
13,CCGGGTCA,-0.198
14,TGAAATCA,0.176
15,GCATACTA,-0.031
16,CCTACCAG,-0.198
17,CCTAGCTA,-0.104
18,CGAGTGCC,-0.212
19,ATTTATCG,0.119
20,GGAGCTCC,-0.164
21,CCTGGGCG,-0.2
22,AACAAGGA,0.0607
23,GAGTTTGA,0.117
24,ACCGTTAA,0.05
25,ACGGAAAC,-0.00025

row,Sequence,PBM E-score
1,CATATACG,0.00122
2,ACCTGGCC,0.00508
3,CGTTCATA,-0.0697
4,CAACCTGA,-0.023
5,CATGCCGC,0.122
6,CACGATAA,0.108
7,GGTCGGCA,-0.184
8,AAGAGGCT,-0.114
9,ACATCTTC,0.108
10,TCCCTAGA,-0.00978
11,GATCGCGC,0.0898
12,TAGTGGCA,-0.0513
13,AAAGGCAG,-0.0351
14,CAACGATC,-0.0562
15,TCAACGGA,0.0565
16,TACGCAAA,-0.01
17,ATAGAACG,0.139
18,ATCATCGA,0.165
19,AGTCGAGA,0.0157
20,AATTAGAC,0.0847
21,ATGACTAG,-0.048
22,ATCCGGCA,0.0463
23,AGGAGCGA,-0.233
24,ATTGGTCA,0.0917
25,AGTAGTAA,0.142

row,Sequence,PBM E-score
1,CGACGGGA,-0.00694
2,AGGGACCG,-0.198
3,AGATATCG,-0.00301
4,CACTGTGA,-0.124
5,CTCTTGAA,-0.0838
6,CTCTCGAC,-0.178
7,GCGATTCA,0.0512
8,AGCTGATC,0.0915
9,AGCATAAT,0.123
10,GCCCTCTA,-0.266
11,CAGTTACA,0.0652
12,AAAACATG,0.133
13,ACGCTCAG,-0.192
14,GCAGGGCA,-0.0716
15,GCAAGAGC,-0.0238
16,CACATCCG,0.116
17,GAATCCCC,-0.16
18,GCCAGTCA,-0.0633
19,ACTCAGTC,-0.0445
20,CGATGACG,-0.102
21,CCGATCTC,-0.0669
22,CGGTACAG,0.034
23,AAGGACCT,0.0084
24,CGGTTAAG,-0.0684
25,AGTGAATC,0.0638

row,Sequence,PBM E-score
1,ACGCATCC,-0.224
2,CCTTTTGA,0.0204
3,CAGCGTGG,-0.127
4,ACATAACC,0.235
5,ATTTGGTC,0.16
6,AACCAACT,0.162
7,GTAGAGAC,-0.242
8,GCTGTTAC,-0.151
9,AAGTGTGC,0.131
10,CACTACCA,-0.0289
11,GGTCTAAC,-0.151
12,CATGGAGG,-0.227
13,ACCACACG,0.0321
14,GCCTGGTA,-0.165
15,CTAGCGCC,-0.183
16,AGTGCGCC,-0.144
17,TCGATTAA,0.267
18,AACCCCTT,-0.0504
19,CGGCTATA,0.00727
20,CTCCAAAA,-0.122
21,CTTACCTA,0.32
22,GACTCGAC,-0.201
23,CAAGCACC,-0.111
24,AGTTTCTA,-0.185
25,GCCGAGAA,0.0859

row,Sequence,PBM E-score
1,CTTTCAGC,-0.127
2,CCTCGTTA,-0.0804
3,GTCAAATA,0.162
4,GCGGCTTA,0.253
5,CTTATATA,0.348
6,CGCACTTC,-0.0754
7,AAATTACA,0.248
8,CAACTAGA,-0.0483
9,AAGATATC,0.207
10,GAGTAGGA,0.0169
11,CTATTTGC,-0.0503
12,GTAGCCAC,-0.273
13,GATGATGA,0.176
14,CAACGTCC,-0.148
15,AAGATTTG,0.0695
16,AAGATTGT,-0.00095
17,ATTACTCC,0.115
18,AGGGGAAA,-0.04
19,AACTGCGC,0.0208
20,CCGTGACG,-0.013
21,AATTGGCG,0.136
22,CTATGTTA,0.202
23,CTTCAGAC,-0.127
24,CCGTTTAC,0.161
25,CATGTACA,-0.159

row,Sequence,PBM E-score
1,GATTAGAA,0.0432
2,AGCATGAA,0.0895
3,ATGACCTC,-0.104
4,AATGGTCT,-0.0588
5,CTCGCATC,0.0143
6,ACTCAGCG,0.0884
7,GGGCAAGA,0.0871
8,CACGGCTC,-0.0578
9,GCGTACAA,-0.118
10,ACTATGCG,0.155
11,ATCGAGGG,0.0234
12,ACTACTGG,-0.0628
13,CTGTCAGC,0.148
14,CGCAACCC,0.0469
15,CTAGGGGC,-0.23
16,CTTAAACA,-0.0118
17,GCCAGTAC,-0.174
18,CTAGACTA,-0.0925
19,GACTGGAC,-0.379
20,ATGCCGCG,0.0262
21,CTTTAGTC,-0.207
22,GAGGTAGA,-0.0525
23,CGAATGCC,-0.0866
24,CCTCATCG,0.176
25,AATGCACA,0.0643

# A second format for some results above:
row	Sequence	PBM E-score
10	GAGTAGGA	0.0169
11	CTATTTGC	-0.0503
12	GTAGCCAC	-0.273
13	GATGATGA	0.176
14	CAACGTCC	-0.148
15	AAGATTTG	0.0695
16	AAGATTGT	-0.00095
17	ATTACTCC	0.115
18	AGGGGAAA	-0.04
19	AACTGCGC	0.0208
20	CCGTGACG	-0.013
21	AATTGGCG	0.136
22	CTATGTTA	0.202
23	CTTCAGAC	-0.127
24	CCGTTTAC	0.161
25	CATGTACA	-0.159
1	GATTAGAA	0.0432
2	AGCATGAA	0.0895
3	ATGACCTC	-0.104
4	AATGGTCT	-0.0588
5	CTCGCATC	0.0143
6	ACTCAGCG	0.0884
7	GGGCAAGA	0.0871
8	CACGGCTC	-0.0578
9	GCGTACAA	-0.118
10	ACTATGCG	0.155
11	ATCGAGGG	0.0234
12	ACTACTGG	-0.0628
13	CTGTCAGC	0.148
14	CGCAACCC	0.0469
15	CTAGGGGC	-0.23
16	CTTAAACA	-0.0118
17	GCCAGTAC	-0.174
18	CTAGACTA	-0.0925
19	GACTGGAC	-0.379
20	ATGCCGCG	0.0262
21	CTTTAGTC	-0.207
22	GAGGTAGA	-0.0525

# Further records.

row,Sequence,PBM E-score
1,CATCGGAA,0.159
2,AGCTAATA,0.0776
3,AACCCTTG,-0.107
4,ATCAGGCG,0.0165
5,ATAACCGC,0.134
6,CGTTTAGC,-0.0184
7,ATTAGCGG,-0.011
8,AAATTGAG,0.0703
9,ACAGGTCT,-0.185
10,CATAAACA,0.199
11,GTGGAAAC,0.0486
12,GAGTACAC,-0.039
13,CTAGGTTA,0.118
14,AAGTGGTG,-0.0223
15,CAGCCAAA,0.0853
16,CGCTTTCC,0.0415
17,AACCTGCG,-0.0647
18,TAACGGCA,-0.024
19,ACTCATGC,-0.0208
20,ACTCTTAA,-0.16
21,ACACTCAC,0.066
22,CCGAGTCG,-0.238
